# Measurements as given in patent US7326715B2, “4-Phenyl-6-substituted-pyrimidine-2-carbonitrile derivatives” (N.V. Organon, priority 2005, dated 2008).
# Some of these results come from one statement about several compounds together.
# Target: T1, recombinant human Cathepsin K (Homo sapiens, UniProt P43235)
# T1 sequence (P43235 115-329): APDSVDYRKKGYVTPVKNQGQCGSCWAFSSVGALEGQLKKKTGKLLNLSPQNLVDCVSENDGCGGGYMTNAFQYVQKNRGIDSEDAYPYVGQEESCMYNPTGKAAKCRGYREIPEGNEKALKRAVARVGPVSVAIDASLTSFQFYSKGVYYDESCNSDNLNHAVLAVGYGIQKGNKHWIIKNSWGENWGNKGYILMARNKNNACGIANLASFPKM
# Experiment: Cathepsin K activity: inhibition of recombinant human Cathepsin K (Z-Phe-Arg-AMC fluorescence)
# Type: biochemical
# Details: substrate Z-Phe-Arg-AMC, pH 5.5, fluorescence at 10 minutes
# Protocol: To a 384 well microtitre plate is added 5 μl of a 100 μM solution of test compound in assay buffer (100 mM sodium acetate pH 5.5, 5 mM EDTA, 5 mM dithiothreitol) with 10% dimethylsulfoxide (DMSO), plus 10 μl of 100 μM solution of the substratre Z-Phe-Arg-AMC (Bachem; 7-amido-coumarine derivative of the dipeptide N-benzyloxycarbonyl-Phe-Arg-OH) in assay buffer and 25 μl of assay buffer. 10 μl of a 1 mg/l solution of activated recombinant human cathepsin K, in assay buffer, is then added to the well, yielding a final inhibitor concentration of 10 μM. Enzyme activity is determined by measuring the fluorescence of the liberated aminomethylcoumarin at […] using 390 nm excitation, at 10 minutes. Percentage enzyme activity is calculated by comparison of this activity to that of a solution containing no inhibitor. Compounds are subsequently subjected to a dose response curve analysis in order to determine IC50 values for active compounds (where IC50 is the concentration of test compound causing 50% inhibition of the enzymatic activity).
# Compounds of the invention typically have a pIC50 (negative logarithm of the IC50 concentration) for inhibition of human cathepsin K of more than 6, preferably more than 7 and most preferably a pIC50 of more than 8, such as for the compounds of Examples 1, 2a, 2b, 3, 5, 6, 8, 12, 14, 13, 16k, 16n, 16o, 17, 22a, 22b, 22c
substance,measurement,value
4-(4-Isopropyl-piperazin-1-yl)-6-(trifluoromethyl-phenyl)-pyrimidine-2-carbonitrile [Example 3],pIC50 (negative logarithm of the IC50 concentration) for inhibition of human cathepsin K,more than 8
